# According to publication PMC4886823:
# Chains of the proteins cited; added tags and fusions are not shown.
# UniProt Q96GG9: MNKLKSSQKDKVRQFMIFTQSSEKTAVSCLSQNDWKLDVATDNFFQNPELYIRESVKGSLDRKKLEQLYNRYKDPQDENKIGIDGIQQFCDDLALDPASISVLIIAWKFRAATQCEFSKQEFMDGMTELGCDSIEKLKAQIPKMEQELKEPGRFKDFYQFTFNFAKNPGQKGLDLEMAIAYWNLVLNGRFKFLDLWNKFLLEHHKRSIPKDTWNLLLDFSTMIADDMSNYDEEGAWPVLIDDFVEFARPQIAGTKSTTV
# UniProt Q6PH85: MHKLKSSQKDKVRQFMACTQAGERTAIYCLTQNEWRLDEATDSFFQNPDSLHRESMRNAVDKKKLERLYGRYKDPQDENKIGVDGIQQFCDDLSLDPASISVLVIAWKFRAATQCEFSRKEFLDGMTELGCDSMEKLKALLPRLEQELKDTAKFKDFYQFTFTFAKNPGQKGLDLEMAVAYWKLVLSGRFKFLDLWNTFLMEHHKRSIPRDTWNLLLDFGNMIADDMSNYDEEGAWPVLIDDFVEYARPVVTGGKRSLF
# UniProt Q13619: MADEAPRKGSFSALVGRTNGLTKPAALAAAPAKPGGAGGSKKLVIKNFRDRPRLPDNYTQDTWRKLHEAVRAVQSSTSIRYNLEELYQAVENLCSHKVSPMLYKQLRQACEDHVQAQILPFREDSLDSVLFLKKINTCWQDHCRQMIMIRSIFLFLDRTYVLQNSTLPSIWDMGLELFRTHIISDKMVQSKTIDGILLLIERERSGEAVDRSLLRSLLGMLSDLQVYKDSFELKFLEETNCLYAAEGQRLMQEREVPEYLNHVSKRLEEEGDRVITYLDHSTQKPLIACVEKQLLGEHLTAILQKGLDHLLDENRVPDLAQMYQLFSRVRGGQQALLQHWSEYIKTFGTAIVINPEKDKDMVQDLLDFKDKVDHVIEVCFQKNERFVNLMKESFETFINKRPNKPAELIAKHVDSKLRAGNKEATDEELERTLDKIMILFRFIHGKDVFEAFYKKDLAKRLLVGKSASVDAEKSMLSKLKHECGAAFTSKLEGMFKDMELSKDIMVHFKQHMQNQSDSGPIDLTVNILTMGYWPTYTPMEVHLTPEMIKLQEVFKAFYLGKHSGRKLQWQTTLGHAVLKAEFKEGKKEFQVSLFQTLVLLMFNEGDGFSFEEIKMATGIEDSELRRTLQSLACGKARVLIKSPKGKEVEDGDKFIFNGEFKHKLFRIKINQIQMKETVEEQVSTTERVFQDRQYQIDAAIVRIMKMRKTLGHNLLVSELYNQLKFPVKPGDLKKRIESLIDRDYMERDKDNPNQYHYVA
# UniProt Q93034: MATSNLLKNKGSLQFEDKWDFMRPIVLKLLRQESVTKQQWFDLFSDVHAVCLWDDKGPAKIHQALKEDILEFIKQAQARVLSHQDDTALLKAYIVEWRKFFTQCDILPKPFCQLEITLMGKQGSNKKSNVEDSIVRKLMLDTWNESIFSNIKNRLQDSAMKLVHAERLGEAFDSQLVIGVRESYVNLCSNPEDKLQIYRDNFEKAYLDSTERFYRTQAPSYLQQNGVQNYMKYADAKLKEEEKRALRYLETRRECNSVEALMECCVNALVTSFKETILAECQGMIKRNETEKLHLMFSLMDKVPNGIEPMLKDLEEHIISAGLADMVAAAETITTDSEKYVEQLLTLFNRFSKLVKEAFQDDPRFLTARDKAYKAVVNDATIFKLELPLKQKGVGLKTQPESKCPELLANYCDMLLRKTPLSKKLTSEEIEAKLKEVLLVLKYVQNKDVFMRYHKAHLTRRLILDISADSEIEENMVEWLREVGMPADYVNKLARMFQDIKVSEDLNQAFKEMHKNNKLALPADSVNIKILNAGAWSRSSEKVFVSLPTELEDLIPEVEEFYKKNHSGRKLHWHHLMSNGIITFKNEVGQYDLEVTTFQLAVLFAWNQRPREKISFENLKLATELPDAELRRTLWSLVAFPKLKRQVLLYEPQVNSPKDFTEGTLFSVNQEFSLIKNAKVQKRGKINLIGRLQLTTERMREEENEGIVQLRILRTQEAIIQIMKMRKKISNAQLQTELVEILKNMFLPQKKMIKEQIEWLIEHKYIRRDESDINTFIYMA
# UniProt Q16531: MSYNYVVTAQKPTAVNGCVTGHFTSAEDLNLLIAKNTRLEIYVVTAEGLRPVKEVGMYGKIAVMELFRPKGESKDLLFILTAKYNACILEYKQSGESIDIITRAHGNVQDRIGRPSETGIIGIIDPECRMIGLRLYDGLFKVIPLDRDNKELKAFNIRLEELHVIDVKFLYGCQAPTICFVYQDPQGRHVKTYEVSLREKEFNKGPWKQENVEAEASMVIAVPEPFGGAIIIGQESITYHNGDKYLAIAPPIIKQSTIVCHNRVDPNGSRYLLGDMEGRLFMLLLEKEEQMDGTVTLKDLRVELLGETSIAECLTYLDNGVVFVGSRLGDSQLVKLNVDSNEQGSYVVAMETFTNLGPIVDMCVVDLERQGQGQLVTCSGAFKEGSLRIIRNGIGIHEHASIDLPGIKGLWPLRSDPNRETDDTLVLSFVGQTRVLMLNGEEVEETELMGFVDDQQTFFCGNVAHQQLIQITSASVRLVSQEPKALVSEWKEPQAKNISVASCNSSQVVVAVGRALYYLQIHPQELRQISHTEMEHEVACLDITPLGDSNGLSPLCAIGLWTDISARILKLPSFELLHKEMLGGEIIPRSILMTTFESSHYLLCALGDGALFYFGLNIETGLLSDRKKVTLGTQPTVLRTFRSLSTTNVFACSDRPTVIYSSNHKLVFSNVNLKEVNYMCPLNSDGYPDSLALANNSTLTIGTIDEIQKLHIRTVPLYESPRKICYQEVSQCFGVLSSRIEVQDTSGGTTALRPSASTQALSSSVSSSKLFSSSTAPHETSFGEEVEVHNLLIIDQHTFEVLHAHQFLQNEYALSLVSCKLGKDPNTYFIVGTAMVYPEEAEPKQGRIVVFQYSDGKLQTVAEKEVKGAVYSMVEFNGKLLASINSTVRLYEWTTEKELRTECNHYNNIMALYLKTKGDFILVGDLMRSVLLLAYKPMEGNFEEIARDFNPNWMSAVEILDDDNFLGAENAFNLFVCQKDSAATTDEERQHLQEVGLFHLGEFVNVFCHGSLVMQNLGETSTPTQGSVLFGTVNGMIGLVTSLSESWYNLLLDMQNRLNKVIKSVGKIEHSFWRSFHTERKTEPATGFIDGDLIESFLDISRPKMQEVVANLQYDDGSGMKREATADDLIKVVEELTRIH
# UniProt Q9UBF6: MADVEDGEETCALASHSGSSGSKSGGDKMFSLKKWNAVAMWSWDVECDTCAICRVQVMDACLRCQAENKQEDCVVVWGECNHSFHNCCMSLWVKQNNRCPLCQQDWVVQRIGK
# UniProt Q14999: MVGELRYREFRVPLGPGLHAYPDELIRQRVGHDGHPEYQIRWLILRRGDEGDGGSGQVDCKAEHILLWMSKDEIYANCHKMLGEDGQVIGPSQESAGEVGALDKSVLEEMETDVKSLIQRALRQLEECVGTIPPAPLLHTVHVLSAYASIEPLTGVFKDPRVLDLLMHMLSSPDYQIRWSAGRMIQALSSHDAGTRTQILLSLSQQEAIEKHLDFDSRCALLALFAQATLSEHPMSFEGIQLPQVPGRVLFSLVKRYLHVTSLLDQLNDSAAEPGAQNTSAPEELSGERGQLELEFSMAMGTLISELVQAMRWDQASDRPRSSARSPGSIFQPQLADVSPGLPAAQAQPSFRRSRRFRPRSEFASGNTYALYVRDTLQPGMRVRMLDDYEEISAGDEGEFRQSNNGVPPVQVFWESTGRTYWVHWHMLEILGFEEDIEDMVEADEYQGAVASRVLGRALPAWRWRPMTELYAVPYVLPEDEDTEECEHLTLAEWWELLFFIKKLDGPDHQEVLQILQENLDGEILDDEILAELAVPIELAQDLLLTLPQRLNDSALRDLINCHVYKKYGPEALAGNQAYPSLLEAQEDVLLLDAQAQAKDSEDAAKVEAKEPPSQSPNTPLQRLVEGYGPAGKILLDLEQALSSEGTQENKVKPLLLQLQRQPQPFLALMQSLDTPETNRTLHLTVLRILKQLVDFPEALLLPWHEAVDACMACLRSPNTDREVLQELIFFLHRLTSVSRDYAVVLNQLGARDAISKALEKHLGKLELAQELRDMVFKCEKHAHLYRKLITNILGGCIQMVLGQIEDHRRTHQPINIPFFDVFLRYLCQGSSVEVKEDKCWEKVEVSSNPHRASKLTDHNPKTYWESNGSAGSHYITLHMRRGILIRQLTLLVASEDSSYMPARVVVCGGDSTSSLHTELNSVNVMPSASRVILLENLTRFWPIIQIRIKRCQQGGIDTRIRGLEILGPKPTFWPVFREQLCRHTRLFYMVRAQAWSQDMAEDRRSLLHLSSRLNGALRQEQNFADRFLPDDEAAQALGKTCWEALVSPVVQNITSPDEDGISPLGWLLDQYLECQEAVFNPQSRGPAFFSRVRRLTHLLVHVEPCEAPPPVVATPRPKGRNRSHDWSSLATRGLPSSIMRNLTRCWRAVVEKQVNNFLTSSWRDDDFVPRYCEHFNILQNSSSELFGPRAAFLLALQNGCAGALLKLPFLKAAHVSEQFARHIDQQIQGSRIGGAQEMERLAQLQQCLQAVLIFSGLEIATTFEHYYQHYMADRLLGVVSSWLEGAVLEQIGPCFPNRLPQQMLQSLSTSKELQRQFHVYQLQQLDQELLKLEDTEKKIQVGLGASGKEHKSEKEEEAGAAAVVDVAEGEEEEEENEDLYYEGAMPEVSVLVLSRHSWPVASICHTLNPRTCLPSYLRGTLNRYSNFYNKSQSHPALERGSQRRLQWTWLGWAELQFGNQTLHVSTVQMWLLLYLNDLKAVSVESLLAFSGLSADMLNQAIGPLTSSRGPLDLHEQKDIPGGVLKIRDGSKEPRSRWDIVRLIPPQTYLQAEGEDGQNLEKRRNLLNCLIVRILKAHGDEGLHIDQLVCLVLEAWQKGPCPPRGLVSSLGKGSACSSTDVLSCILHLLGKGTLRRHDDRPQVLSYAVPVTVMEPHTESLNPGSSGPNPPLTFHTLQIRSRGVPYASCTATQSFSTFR
# UniProt Q13620: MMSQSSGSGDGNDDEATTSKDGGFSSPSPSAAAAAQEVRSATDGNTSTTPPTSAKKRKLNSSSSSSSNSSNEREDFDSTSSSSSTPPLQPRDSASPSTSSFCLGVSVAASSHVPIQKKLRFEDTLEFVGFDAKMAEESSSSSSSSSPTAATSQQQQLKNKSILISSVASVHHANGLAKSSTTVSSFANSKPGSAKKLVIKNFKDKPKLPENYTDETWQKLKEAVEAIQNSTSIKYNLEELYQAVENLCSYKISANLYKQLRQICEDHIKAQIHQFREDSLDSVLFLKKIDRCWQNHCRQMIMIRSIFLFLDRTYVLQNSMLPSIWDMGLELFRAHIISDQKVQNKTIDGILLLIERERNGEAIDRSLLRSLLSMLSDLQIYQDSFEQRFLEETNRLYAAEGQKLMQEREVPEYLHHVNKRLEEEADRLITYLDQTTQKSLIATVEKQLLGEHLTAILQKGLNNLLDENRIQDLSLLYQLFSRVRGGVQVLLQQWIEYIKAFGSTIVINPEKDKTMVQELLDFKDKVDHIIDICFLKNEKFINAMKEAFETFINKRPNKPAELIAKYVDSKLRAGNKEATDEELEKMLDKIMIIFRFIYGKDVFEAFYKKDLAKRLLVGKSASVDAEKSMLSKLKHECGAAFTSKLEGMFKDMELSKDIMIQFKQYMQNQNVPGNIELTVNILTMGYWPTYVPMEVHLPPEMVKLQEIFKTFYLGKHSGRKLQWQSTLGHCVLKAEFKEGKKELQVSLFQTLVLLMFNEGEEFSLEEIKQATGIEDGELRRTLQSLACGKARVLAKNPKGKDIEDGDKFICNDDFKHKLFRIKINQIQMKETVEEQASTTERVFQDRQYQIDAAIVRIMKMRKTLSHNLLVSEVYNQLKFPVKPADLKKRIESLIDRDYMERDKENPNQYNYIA
# Results are given in words; binding and its absence hold for the method and conditions named. Binding seen in cells or lysates may run through a third protein. Here binding means that the protein was enriched with, or labelled near, the bait; the list need not be complete. No binding means not detected with the bait. For some of these results: Where a sequence is shown, tags or fusion partners need not be part of it.
# Tests used:
# Test in all cases: affinity purification with mass spectrometry; FLAG(M2)-magnetic bead immunoprecipitation from lysates of HEK-293 cells stably expressing N-terminally FLAG-tagged DCNLs; eluate trypsin-digested, Orbitrap, MaxQuant; interactors with >3 unique peptides plotted
# FLAG–DCNL1 (WT) (human) = FLAG–DCNL1 (WT) (human) (UniProt Q96GG9)
# FLAG–DCNL2 (WT) (human) = FLAG–DCNL2 (WT) (human) (UniProt Q6PH85)
# FLAG–DCNL3 (WT) (human) = target: T1, FLAG–DCNL3 (WT) (human) (UniProt Q8IWE4)
# T1 sequence: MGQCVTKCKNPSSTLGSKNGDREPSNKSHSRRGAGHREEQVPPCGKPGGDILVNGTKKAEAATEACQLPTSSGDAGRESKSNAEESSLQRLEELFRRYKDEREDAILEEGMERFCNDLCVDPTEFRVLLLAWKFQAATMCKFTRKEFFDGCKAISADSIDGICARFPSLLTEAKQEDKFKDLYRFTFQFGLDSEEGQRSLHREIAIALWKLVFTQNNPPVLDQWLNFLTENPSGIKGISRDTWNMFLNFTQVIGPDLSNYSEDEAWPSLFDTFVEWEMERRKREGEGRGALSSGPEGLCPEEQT
# FLAG–DCNL5 (WT) (human) = target: T2, FLAG–DCNL5 (WT) (human) (UniProt Q9BTE7)
# T2 sequence: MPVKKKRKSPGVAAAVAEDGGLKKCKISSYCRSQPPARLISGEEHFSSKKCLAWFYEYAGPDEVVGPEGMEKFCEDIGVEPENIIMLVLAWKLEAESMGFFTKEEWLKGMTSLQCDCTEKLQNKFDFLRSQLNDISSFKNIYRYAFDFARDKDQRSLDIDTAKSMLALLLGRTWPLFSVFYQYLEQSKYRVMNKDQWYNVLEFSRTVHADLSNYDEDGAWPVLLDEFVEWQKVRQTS
binding (FLAG–DCNL1 (WT) (human)),binding (FLAG–DCNL2 (WT) (human)),binding (FLAG–DCNL3 (WT) (human)),binding (FLAG–DCNL5 (WT) (human)),Substance
binds,binds,binds,binds,Cul4A (from UniProt Q13619 1-759)
binds,binds,binds,binds,Cul5 (from UniProt Q93034 1-780)
binds,binds,binds,binds,DDB1 (from UniProt Q16531 1-1140)

# The next lines start with the substance.
Substance,binding (FLAG–DCNL1 (WT) (human)),binding (FLAG–DCNL2 (WT) (human)),binding (FLAG–DCNL3 (WT) (human)),binding (FLAG–DCNL5 (WT) (human))
RBX2 (RNF7) (from UniProt Q9UBF6 1-113),binds,binds,binds,binds
Cul9 (from UniProt Q8IWT3 1-2517),no binding,no binding,no binding,no binding
Cul7 (from UniProt Q14999 1-1698),no binding,no binding,no binding,no binding
Cul4B (from UniProt Q13620 1-913),binds,binds,binds,binds
